# Assay results from patent EP4360658A1, “COMPOUNDS FOR DETECTION OF ORAL INFLAMMATION” (Julius-Maximilians-Universität Würzburg, priority 2022, dated 2024).
# Amino acid sequences for entries named in this document (tags omitted). Residues count along the entry.
# UniProt P22894, 101-467: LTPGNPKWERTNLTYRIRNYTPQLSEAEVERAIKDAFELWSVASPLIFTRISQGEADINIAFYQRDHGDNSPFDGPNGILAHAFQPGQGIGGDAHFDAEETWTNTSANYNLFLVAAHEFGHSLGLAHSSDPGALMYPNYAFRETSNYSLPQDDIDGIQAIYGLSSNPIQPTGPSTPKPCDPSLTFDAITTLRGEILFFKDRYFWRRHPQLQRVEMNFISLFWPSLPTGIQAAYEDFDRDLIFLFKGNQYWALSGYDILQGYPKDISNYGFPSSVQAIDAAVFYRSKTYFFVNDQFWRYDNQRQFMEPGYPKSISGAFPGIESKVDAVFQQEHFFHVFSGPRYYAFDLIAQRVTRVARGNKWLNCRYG
# UniProt P14780, 107-707 limits assumed: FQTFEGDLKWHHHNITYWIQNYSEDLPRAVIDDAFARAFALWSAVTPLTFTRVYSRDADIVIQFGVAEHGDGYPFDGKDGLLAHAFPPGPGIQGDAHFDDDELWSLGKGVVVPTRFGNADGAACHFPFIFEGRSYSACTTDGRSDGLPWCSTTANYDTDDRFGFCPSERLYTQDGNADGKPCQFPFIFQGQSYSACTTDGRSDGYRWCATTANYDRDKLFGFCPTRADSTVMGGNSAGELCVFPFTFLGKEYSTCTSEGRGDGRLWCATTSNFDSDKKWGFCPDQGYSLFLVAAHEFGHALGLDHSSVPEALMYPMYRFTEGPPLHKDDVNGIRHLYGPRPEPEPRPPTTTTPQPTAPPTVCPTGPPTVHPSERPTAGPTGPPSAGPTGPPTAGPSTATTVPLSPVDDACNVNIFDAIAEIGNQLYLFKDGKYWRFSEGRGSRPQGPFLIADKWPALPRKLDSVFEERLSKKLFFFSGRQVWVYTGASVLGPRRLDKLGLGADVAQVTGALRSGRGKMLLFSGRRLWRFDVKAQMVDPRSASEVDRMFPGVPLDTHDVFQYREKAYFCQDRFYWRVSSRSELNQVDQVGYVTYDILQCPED
# Where “and” joins values, the source holds several entries; their conditions need not be identical. Equal values may be shown once. Part of at least one peptide drawing is inferred or uncertain, most often the ends. *1 amine or outer side, *2 acyl side, *3 side chain or, on linkers, in order; H or OH if unused. Where a SMILES comes first, the peptide text is derived from it. Where no end group is shown, it is not given here. [ ]: non-standard residue; d: D form. The star is where a group is joined. X1 = CC[N+](CC)(CC(=O)[*:2])Cc1ccc(CN[*:1])cc1; NH(2,6-Me2-phenyl) = Cc1cccc(C)c1N*
# What was measured:
# Assay type in all cases: biochemical
# [1] = test system: MMP mix (a mixture of MMPs 1, 8, and 9); assay: Sensor cleavage with MMP mix; conditions: after 5 min
# aminopeptidase = assay: Aminopeptidase cleavage
# MMP-8 [2] = target: T1, MMP-8 (Homo sapiens, UniProt P22894); assay: Sensor cleavage by MMP-8
# T1 construct: purchased Merck Millipore
# Method: (§1) Pro-Matrix-metalloproteinases (MMP-1, MMP-8, and MMP-9) (Merck Millipore, Burlington, MA, USA) were activated prior usage. To activate Pro-MMPs a fresh 50 mM 4-Aminophenylmercuric acetate (APMA) stock solution in 0.1 M NaOH was prepared. The stock solution was added in a 10:1 (v/v) ratio to Pro-MMPs (Pro-MMPs:APMA) to reach a final concentration of 5 mM APMA. The solution was incubated for 3 h at 37 °C without agitation. Following incubation, the activated MMPs were stored in aliquots at -80 °C.
# (§2) Lyophilized sensors and Y3 were solubilized in MMP buffer (200 mM NaCl, 50 mM Tris-HCI, 5 mM CaCl2, 1 µM ZnCl2, 0.05 % Brij35 at pH 6.8-7.0) to 1 mM stock solutions. […]
# (§3) Experiments were performed n = 5. Cleavage was analyzed via fluorescent detection via HPLC with following wavelengths: SP3 (absorption: 646 nm; emission: 661 nm), SP5 (absorption: 494 nm; emission: 517 nm), SP7 (absorption: 553 nm; emission: 566 nm) and SN3 (absorption: 280 nm; emission: 350 nm). Y3 cleavage was analyzed as described before. Cleavage percent was analyzed by comparing the AUC of the main peak from the compound incubated with MMP and in absence of MMP. […] The correction factor was determined individually for every experiment/MMP by dividing Y3 cleavage results acquired in protease sensitive linker identification study by cleavage results of Y3 in individual sensor cleavage experiments (Figure 3 D-F).
# MMP-9 [3] = target: T2, MMP-9 (Homo sapiens, UniProt P14780); assay: Sensor cleavage by MMP-9; conditions: sensors in mixture, 17.5 nM MMP-9, incubation 15 minutes
# T2 construct: purchased Merck Millipore
# Method: as §1, §2, §3
# MMP-1 [4] = target: T3, MMP-1 (Homo sapiens, UniProt P03956); assay: Sensor cleavage by MMP-1; conditions: sensors in mixture, 17.5 nM MMP-1, incubation 15 minutes
# T3 construct: purchased Merck Millipore
# T3 sequence (P03956 100-469): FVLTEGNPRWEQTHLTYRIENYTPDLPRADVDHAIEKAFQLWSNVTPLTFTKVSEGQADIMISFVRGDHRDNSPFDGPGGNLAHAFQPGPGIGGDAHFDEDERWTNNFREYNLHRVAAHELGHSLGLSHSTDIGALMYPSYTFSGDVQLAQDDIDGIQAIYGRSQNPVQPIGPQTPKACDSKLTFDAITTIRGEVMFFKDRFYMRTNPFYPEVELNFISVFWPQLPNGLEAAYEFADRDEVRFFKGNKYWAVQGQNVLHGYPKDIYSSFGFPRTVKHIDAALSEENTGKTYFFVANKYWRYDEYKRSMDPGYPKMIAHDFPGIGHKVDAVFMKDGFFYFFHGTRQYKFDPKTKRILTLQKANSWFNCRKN
# Method: as §1, §2, §3
# [5] = Sensor cleavage in human saliva
# Method: Lyophilized sensors were solubilized in MMP buffer to 0.05 mM each and mixed with saliva 1:1 (v/v) to reach a final concentration of 25 µM per sensor. The solution was incubated for 15 min at 37 °C under rigorous shaking and the reaction was stopped via addition of 5 mM EDTA final concentration. The samples were diluted 1:2 with acetonitrile, 1:5 with water (1:10 total dilution) and analyzed via HPLC as described before. Cleavage efficiency was analyzed by comparing the AUC of the newly formed peaks compared to the total AUC of the combined peaks. Peaks with LU < 1 were considered below the limit of detection and set to 0.5 LU for further analysis. […]
# Periodontal examinations were obtained from all study participants comprising the documentation of missing teeth, probing pocket depths (PPD), recession, bleeding on probing (BoP), clinical attachment level (CAL), furcation involvement, tooth mobility and plaque control record (PlaCR). […] CAL, PPD and BoP were recorded at 6 sites per tooth (mesio-buccal, buccal, disto-buccal, disto-oral, oral, mesio-oral) using a pressure calibrated computer aided Florida Probe handpiece. Any bleeding spot appearing within 30 seconds after probing was recorded as a BoP-positive site. Furcation involvement was determined using a manual furcation probe (Nabers Probe). […]
# MMP-9 [6] = target: T2, MMP-9; assay: Peptide (PSL) cleavage by MMP-9; conditions: 17.5 nM MMP-9, incubation time 15 minutes (Figure 3 F)
# MMP-8 [7] = target: T1, MMP-8; assay: Peptide (PSL) cleavage by MMP-8; conditions: for cleavage rate: 17.5 nM MMP-8, incubation time 15 minutes (Figure 3 E); for cleavage compared with the preceding PSL (iterative improvement): MMP-8, stepwise amino acid exchange starting from S1-PSL (Figure 3A)
# MMP-1 [8] = target: T3, MMP-1; assay: Peptide (PSL) cleavage by MMP-1; conditions: 17.5 nM MMP-1, incubation time 15 minutes (Figure 3 D)
compound,measurement,setting,value
"CC[C@H](C)[C@H](NC(=O)CNC(=O)[C@H](CCC(N)=O)NC(=O)[C@@H]1CCCN1C(=O)CNC(=O)[C@H](CO)NC(=O)CNC(=O)[C@H](CO)NC(=O)CNC(C)=O)C(=O)N[C@@H](C)C(=O)NCC(=O)N[C@@H](C)C(=O)NCC(=O)N[C@@H](CO)C(=O)NCC(=O)N[C@@H](CO)C(=O)NCc1ccc(C[N+](CC)(CC)CC(=O)Nc2c(C)cccc2C)cc1 [S1, Ac-GSGS-GPQGIAGA-GSGS-Den] (Ac-GSGSGPQGIAGAGSGS[X1]-{NH(2,6-Me2-phenyl)})",cleavage rate,[1]; 4 nM MMP mix,< 1%
same,cleavage rate,[1]; 8 nM MMP mix,> 20%
same,cleavage (aminopeptidase stability),"aminopeptidase; 1 h, all tested aminopeptidase concentrations from 0 to 78 µg/mL, 37 °C",no cleavage
same,cleavage,"MMP-8 [2]; MMP-8, 15 min, concentrations ranging from 1 to 10 nM",but not for MMP-8
"CC[C@H](C)[C@H](N)C(=O)N[C@@H](C)C(=O)NCC(=O)N[C@@H](C)C(=O)NCC(=O)N[C@@H](CO)C(=O)NCC(=O)N[C@@H](CO)C(=O)NCc1ccc(C[N+](CC)(CC)CC(=O)Nc2c(C)cccc2C)cc1 [S1c, IAGA-GSGS-Den] (H-IAGAGSGS[X1]-{NH(2,6-Me2-phenyl)})",cleavage rate,"aminopeptidase; 0.87 µg/mL aminopeptidase, after 20 min",95%
same,cleavage rate,"aminopeptidase; 1 h, lowest aminopeptidase concentration tested, 37 °C",95%
"CC[N+](CC)(CC(=O)Nc1c(C)cccc1C)Cc1ccc(CNC(=O)[C@H](CO)NC(=O)CNC(=O)[C@H](CO)NC(=O)CNC(=O)[C@H](C)NC(=O)CNC(=O)[C@H](Cc2c[nH]c3ccccc23)NC(=O)[C@H](Cc2ccc(O)cc2)NC(=O)[C@H](C)NC(=O)[C@H](CCC(N)=O)NC(=O)[C@@H]2CCCN2C(=O)CNC(=O)[C@H](CO)NC(=O)CNC(=O)[C@H](CO)NC(=O)CNC(C)=O)cc1 [SX3, Ac-GSGS-GPQAYWGA-GSGS-Den] (Ac-GSGSGPQAYWGAGSGS[X1]-{NH(2,6-Me2-phenyl)})",cleavage rate (multiplexing),MMP-9 [3],medium cleavage rates
same,cleavage rate (multiplexing),MMP-1 [4],low cleavage rates
same,Cleavage SX3,"[5]; control saliva samples, per patient, sensors in mixture, 25 µM per sensor, 15 min at 37 °C",0.70% and 1.17% and 0.66% and 0.69% and 0.31% and 1.95% and 0.73% and 1.40% and 0.27% and 1.89% and 0.82% and 0.33% (2×) and 0.34% and 0.30% and 0.29%
same,cleavage in saliva from patients compared to saliva from healthy donors,[5]; periodontitis patients vs. healthy donors,discriminated against periodontitis
same,cleavage rate (multiplexing),"MMP-8 [2]; sensors in mixture, 17.5 nM MMP-8, incubation 15 minutes",high cleavage rates
"Ac-GALALVGA [PSL-Y7, Ac-GALALVGA]",cleavage rate,MMP-9 [6],not being cleaved by MMP-9
same,cleavage rate,MMP-8 [7],cleavage by MMP-8
"Ac-GALELVGA [PSL-Y5, Ac-GALELVGA]",cleavage rate,MMP-9 [6],not being cleaved by MMP-9
same,cleavage rate,MMP-8 [7],cleavage by MMP-8
"Ac-GPLALVGA [PSL-Y3, Ac-GPLALVGA]",cleavage rate,MMP-9 [6],high cleavage rate
same,cleavage rate,MMP-8 [7],high cleavage rate
same,cleavage rate,MMP-1 [8],high cleavage rate
"Ac-GPLAYWGA [PSL-X4, Ac-GPLAYWGA]",cleavage compared with the preceding PSL (iterative improvement),MMP-8 [7],reduced cleavage compared to PSL-X3
"Ac-GPQAYWGA [PSL-X3, Ac-GPQAYWGA]",cleavage rate,MMP-9 [6],low cleavage rate
same,cleavage rate,MMP-8 [7],high cleavage rate
same,cleavage compared with the preceding PSL (iterative improvement),MMP-8 [7],further enhanced
same,cleavage rate,MMP-1 [8],low cleavage rate
"Ac-GPQGIWGA [PSL-X1, Ac-GPQGIWGA]",cleavage compared with the preceding PSL (iterative improvement),MMP-8 [7],an increase in cleavage
"Ac-GPQGYWGA [PSL-X2, Ac-GPQGYWGA]",cleavage compared with the preceding PSL (iterative improvement),MMP-8 [7],further improved
